Data taken from patent US20120270914A1, “SPLIT-LUCIFERASE C-MYC SENSOR AND USES THEREOF” (THE BOARD OF TRUSTEES OF THE LELAND STANFORD JUNIOR …, priority 2011, published 2012).
Results are given in words; binding and its absence hold for the method and conditions named. Some binding calls cover weakened binding; strength is not graded here.

The chains behind the UniProt entries cited, without tags or fusion partners. Where a name states a change or a piece, a line headed by the entry shows the natural chain unless it says otherwise.
UniProt P49841: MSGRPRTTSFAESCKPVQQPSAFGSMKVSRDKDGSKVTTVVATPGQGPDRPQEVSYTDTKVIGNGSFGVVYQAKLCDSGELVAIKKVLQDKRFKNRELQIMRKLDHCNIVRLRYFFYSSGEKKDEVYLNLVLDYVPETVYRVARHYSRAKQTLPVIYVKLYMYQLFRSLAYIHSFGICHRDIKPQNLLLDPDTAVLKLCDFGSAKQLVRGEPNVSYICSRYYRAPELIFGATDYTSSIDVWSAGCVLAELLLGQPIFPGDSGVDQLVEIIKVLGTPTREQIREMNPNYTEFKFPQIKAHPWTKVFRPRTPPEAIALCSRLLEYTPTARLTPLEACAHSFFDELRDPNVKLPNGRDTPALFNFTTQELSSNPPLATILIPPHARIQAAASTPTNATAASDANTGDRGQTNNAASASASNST

Biological target: NFL-c-Myc (firefly) [luciferase: P08659]
Assay: split firefly luciferase complementation, BLI in SKBR3 cells

Question: With “GSK 35-433-CFL (from UniProt P49841 35-420)” as the substance, how does the binding read?
Answer: The binding was “binds”.

Question: For “GSK Full-CFL (from UniProt P49841 1-420)”, which binding is on record?
Answer: Its binding is “binds”.
